According to US20140056907A1:
Where a chain is given by its changes, count along the chain named. Results are given in words; binding and its absence hold for the method and conditions named. Some entries that bind do so weakly or less than the wild type.

By UniProt entry, the sequences of proteins in these tests, tags left out.
UniProt P55926: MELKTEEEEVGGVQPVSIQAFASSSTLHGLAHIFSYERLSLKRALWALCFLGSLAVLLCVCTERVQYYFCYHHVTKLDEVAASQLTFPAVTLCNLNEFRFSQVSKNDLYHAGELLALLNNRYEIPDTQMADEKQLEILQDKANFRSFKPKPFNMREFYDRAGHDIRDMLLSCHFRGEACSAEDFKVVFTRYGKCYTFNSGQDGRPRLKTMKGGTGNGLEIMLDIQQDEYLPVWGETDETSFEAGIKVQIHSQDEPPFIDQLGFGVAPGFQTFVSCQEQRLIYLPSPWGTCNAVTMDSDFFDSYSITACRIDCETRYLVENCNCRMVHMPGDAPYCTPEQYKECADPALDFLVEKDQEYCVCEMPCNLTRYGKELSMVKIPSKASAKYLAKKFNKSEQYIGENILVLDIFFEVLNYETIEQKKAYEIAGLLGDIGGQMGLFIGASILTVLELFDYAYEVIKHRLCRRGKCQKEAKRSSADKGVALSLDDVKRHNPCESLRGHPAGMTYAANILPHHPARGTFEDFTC

B1: H3M6726N (antibody, V domains shown)
VH: EVQLLESGGVLVQPGGSLRLSCAASGFNFNNYDMSWVRQAPGKGLEWVSVISASGRNTYYADSVKGRFTISRDNSKISLYLQMNSLRPEDTAVYYCAKDHLVHYYYGMDVWGQGTTVTVSS
VL: DIMMTQSPLSLSVTPGEPASISCRSSQSLLHSNGYNYLDWYLQKSGQSPHLLIYLGSNRASGVPDRFSGSGSGTDFTLKISRVEAEDGGVYYCMQALQTPRTFGQGTKVEIK
B2: H3M7118N (antibody, V domains shown)
VH: EVQLLESGGGLVQPGGSLRLSCAASGFTFRNYAMSWVRQAPGKGLEWVSAINGGGDSTYYADSVKGRFTISRDNSKNTLYLQMNSLRAEDTAVYYCAKEEGDWNYVGYGYYYYYGMDVWGQGTTVTVSS
VL: DIQMTQSPSSMSASVGDRVTITCRASQGISSWLAWYQQKPGKAPKLLIYAASSLQSGVPSRFSGSGSGTDFTLTIRSLQPEDFATYYCQQANSFPYTFGQGTKLEIK
B3: H4H6366P (antibody, human IgG4, V domains shown)
VH: EVQLVESGGDLIQPGGSLRLSCIASGFTFRGYAMSWVRQAPGEGLDWVSGISSGGGNTYYADSVKGRFTISRDNSKNTLYLQMNSLRVEDTAVYYCAKDRGGVRDFYYGLDVWGQGTTVTVSS
VL: DIQMTQSPSTLSASVGDRVTITCRASQSIYSWLAWYQQKPGKAPKLLIYKASSLESGVPSRFSGSGSGTDFTLTISSLQPDDFTTYYCQQYLSYSRTFGQGTKVEIK
B4: H1M6718N (antibody, mouse IgG1, V domains shown)
VH: EVQLLESGGGLVQPGGSLRLSCAASGFTFSSFAMSWVRQAPGKGLEWVSGISGSGGGTHYADSVKGRFTISRDNSKNMVYLQMNSLRAEDTAAYYCAKEAYKWQPWGQGTLVTVSS
VL: B3 VL with T20I, S28R, Y30S, K45N, S53I, D70E, T84A, L92N, R96Y, V104L
B5: H1M7101N (antibody, mouse IgG1, V domains shown)
VH: B4 VH with E6A, P14T, G57S, H59Y, M78T, V79L, T110I, L111R
VL: B3 VL with Y30S, K45N, A51T, S53N, D70E, T84A, L92N, R96Y, V104L
B6: H3M7102N (antibody, V domains shown)
VH: B4 VH with E6A, G57S, H59Y, M78T, V79L, T110I, L111R
VL: B3 VL with T20S, Y30S, S53N, E55D, T84A, L92N, R96Y, V104L

Target: rat ASIC1 (rat) (UniProt P55926)
Experiment: FACS, differentiated ND7 cells

Binder | binding
B1 | binds
B2 | binds
B3 | binds
B4 | binds

Target: rat ASIC1 (rat) (UniProt P55926)
Experiment: FACS, undifferentiated ND7 cells

Binder | binding
B5 | binds
B1 | binds
B6 | binds
B2 | binds
B3 | binds
B4 | binds
